Our source for the binding values is patent US20150030603A1.

By UniProt entry, the sequences of proteins in these tests, tags left out. Where a name states a change or a piece, a line headed by the entry shows the natural chain unless it says otherwise. Residues count along the entry.
UniProt Q02763, residues 23-745: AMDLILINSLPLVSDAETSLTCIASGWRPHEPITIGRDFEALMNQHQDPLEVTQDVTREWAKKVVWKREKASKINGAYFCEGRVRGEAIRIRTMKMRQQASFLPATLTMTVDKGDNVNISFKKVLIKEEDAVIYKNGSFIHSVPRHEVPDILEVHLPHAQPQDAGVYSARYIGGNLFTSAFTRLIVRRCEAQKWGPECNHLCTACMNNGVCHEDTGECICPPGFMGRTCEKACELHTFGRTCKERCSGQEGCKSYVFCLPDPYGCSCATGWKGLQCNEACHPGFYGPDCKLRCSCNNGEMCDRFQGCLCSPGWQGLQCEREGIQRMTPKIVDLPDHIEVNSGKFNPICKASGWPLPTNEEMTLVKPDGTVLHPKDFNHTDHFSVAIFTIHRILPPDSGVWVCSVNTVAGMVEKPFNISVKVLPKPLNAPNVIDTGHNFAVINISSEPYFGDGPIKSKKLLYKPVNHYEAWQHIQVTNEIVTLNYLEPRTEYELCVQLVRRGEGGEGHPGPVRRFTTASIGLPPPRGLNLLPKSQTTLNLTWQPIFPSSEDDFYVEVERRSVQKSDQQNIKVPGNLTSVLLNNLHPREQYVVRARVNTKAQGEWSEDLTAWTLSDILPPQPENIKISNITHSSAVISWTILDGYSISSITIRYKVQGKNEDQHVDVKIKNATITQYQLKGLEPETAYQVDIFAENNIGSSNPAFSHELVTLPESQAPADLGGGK
UniProt O15123: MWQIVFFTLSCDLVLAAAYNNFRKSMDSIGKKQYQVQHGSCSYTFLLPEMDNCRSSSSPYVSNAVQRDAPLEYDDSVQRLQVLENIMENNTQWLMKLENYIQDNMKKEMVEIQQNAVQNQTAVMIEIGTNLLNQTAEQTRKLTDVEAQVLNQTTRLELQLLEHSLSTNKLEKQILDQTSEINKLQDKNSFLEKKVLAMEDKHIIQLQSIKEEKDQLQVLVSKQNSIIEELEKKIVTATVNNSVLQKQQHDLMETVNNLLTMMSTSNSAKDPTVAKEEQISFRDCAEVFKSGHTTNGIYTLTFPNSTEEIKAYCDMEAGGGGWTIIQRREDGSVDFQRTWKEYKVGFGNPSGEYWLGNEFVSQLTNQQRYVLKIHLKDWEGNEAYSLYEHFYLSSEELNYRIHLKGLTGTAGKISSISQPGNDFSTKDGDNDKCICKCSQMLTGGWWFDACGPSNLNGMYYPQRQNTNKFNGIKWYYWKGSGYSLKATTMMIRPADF

In the test the target is hTie2-Fc (R&D Systems) (human) (UniProt Q02763). Kind of test: sandwich (complex) ELISA: coated Tie2-Fc, FLAG-Ang2 0.25 µg/ml captured and detected through 10D6 2 µg/ml and anti-mouse IgG-HRP (OD450).

No constants are given. Whether binding was seen depends on the method and setting. Some results given as binding are weak or reduced against the parent protein; the word gives no strength.

Regarding “FLAG-tagged hAng-2 (from UniProt O15123 19-496) (ligand)”, the binding entry is “binds”.
